# Measurements: patent publication US7892782B2 (priority 1998, dated 2011)
# At least one structure is not confirmed: it was looked up by name or label, or the drawing left a doubt.
# Experiments:
# M. tuberculosis [1] = format: cell-based, Mycobacterium tuberculosis
# M. tuberculosis [2] = experiment: RT-PCR of gene transcripts before and after rifampicin treatment; format: cell-based, Mycobacterium tuberculosis; settings: after 5 days of rifampicin treatment
# Description: The metabolic state of bacilli before and after rifampicin treatment was also assessed by examining total RNA which was extracted. RT-PCR was performed on the following genes; rpoB which encodes the rifampicin target (RNA polymerase sub-unit B); 16 kDa protein α-crystallin homolog); 16S rRNA and two Sigma 70 homologues, sigA and sigB.
structure (smiles),measurement,setting,value
CO[C@H]1/C=C/O[C@@]2(C)Oc3c(C)c(O)c4c(O)c(c(/C=N/N5CCN(C)CC5)c(O)c4c3C2=O)NC(=O)/C(C)=C\C=C\[C@H](C)[C@H](O)[C@@H](C)[C@@H](O)[C@@H](C)[C@H](OC(C)=O)[C@@H]1C [rifampicin],susceptibility of stationary phase organisms to MIC level of rifampicin,M. tuberculosis [1],resistant
same,16S rRNA by RT-PCR,M. tuberculosis [2],not diminished
same,transcript for SigA by RT-PCR,M. tuberculosis [2],not seen
same,"transcripts for rpoB, 16K and SigB by RT-PCR",M. tuberculosis [2],"could still be detected, albeit at reduced levels"
